Results reported in paper PMC10216351.
No constants are given. Whether binding was seen depends on the method and setting. Binding seen in cells or lysates may run through a third protein. Some entries that bind do so weakly or less than the wild type. For part of these data: Tags and fused reporters may be left off the sequences shown.

Experiments:
[1] = target: T1, CERS6-HA (UniProt Q6ZMG9); assay: cross-linking + co-IP; crosslinking immunoprecipitation (CLIP): A549 cells overexpressing CERS6-HA, 1% formaldehyde in RPMI1640 for 5 min at RT, quenched with 125 mM glycine; IP with anti-CERS6 or anti-HA on Dynabeads; WB for LASP1
T1 sequence: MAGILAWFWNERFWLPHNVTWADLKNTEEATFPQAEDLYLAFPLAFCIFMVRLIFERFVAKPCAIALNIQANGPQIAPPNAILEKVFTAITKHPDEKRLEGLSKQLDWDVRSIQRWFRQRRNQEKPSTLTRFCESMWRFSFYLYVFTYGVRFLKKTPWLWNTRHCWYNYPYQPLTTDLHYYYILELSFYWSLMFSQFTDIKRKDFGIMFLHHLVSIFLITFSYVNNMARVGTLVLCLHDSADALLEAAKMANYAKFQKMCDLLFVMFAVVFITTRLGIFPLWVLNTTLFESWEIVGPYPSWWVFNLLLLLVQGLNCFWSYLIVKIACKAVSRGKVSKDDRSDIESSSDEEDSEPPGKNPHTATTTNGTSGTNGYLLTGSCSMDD

[2] = target: T2, LASP1-FLAG, full-length (UniProt Q14847); assay: co-IP; LASP1-FLAG full-length or truncated mutants overexpressed in A549; IP with anti-FLAG on Dynabeads; WB for endogenous CERS6
T2 sequence: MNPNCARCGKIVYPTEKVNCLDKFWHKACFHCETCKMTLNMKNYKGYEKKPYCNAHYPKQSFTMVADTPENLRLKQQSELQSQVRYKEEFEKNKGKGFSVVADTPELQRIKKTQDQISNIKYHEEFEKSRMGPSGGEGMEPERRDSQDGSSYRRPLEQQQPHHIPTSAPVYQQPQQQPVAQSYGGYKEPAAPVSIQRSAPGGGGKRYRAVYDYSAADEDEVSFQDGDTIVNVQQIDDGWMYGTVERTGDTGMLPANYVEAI

[3] = target: T3, LASP1 (LIM and SH3 domain protein 1), endogenous (human (endogenous in A549)) (UniProt Q14847); assay: co-IP; endogenous proteins of A549 lysate; IP with anti-LASP1 on Dynabeads, 2 h at 4 °C; IP-lysis buffer 25 mM Tris HCl pH 7.4, 150 mM NaCl, 1 mM EDTA, 1% NP-40, 1% glycerol; WB for CERS6
T3 sequence: T2 sequence

B1: LASP1 (LIM and SH3 domain protein 1), endogenous (protein, UniProt Q14847 1-261)
chain: T2 sequence
With B1 the binding [1] was “binds”.

B2: CERS6 (ceramide synthase 6), endogenous (protein, UniProt Q6ZMG9 1-384)
chain: T1 sequence
With B2 the binding [2] was “binds” and the binding [3] was “binds”.
